According to paper PMC12518634, “The noncanonical function of liver-type phosphofructokinase potentiates the efficacy of HDAC inhibitors in cancer” (Signal Transduction and Targeted Therapy, 2025):
Results are given in words; binding and its absence hold for the method and conditions named. For some of these results: Binding seen in cells or lysates may run through a third protein. Some entries that bind do so weakly or less than the wild type. For some of these results: Where a sequence is shown, tags or fusion partners need not be part of it. One block for each binder: values may come before it.

Chains of the proteins cited; added tags and fusions are not shown.
UniProt Q13547: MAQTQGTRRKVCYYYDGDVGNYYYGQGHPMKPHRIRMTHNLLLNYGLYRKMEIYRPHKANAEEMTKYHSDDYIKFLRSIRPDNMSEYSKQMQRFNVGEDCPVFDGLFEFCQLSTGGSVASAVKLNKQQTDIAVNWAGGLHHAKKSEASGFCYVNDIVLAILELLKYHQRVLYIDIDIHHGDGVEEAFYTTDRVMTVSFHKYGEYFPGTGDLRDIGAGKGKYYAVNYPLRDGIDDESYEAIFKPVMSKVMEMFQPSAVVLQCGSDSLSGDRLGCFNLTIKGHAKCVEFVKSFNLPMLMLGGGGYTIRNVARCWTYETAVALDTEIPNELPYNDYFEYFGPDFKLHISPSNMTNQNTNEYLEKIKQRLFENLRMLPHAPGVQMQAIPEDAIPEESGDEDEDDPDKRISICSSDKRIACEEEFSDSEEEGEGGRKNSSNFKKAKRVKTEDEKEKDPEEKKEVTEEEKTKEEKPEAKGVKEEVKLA

Experiments:
[1] = target: HDAC1 (endogenous or tagged not stated; immunoprecipitates for mass spectrometry and co-IP with the PFK isoforms) (human) (UniProt Q13547); test: co-IP; co-IP of PFKL, PFKM or PFKP with HDAC1
[2] = target: T1, GST-PFKL, recombinant (human) (UniProt P17858); test: pull-down; GST-PFKL on glutathione beads (1 h, 4 °C), His-HDAC protein added (1.5 h, 4 °C), five washes, glutathione elution; Coomassie staining and immunoblot; both purified
T1 sequence: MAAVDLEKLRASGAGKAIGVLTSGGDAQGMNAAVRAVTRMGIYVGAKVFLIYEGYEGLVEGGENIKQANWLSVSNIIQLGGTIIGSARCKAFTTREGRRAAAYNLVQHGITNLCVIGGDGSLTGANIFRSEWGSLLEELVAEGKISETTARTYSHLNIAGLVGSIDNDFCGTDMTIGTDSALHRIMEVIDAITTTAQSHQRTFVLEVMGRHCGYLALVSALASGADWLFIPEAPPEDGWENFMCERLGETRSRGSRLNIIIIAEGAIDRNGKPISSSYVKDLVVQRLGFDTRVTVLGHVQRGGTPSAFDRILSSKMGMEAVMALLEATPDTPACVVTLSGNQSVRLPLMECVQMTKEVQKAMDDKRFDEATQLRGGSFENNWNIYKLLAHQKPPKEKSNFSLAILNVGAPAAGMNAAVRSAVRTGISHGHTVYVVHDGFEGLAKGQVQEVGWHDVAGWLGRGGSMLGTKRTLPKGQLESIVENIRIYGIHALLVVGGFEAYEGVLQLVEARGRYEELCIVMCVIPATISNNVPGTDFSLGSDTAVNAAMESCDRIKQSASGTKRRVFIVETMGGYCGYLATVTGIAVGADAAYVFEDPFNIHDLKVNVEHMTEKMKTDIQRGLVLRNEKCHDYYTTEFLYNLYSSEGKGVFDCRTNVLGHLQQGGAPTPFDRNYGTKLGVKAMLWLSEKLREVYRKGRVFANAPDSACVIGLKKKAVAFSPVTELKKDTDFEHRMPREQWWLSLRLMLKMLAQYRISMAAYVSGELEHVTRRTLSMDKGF

[3] = target: T2, Flag-tagged PFKL (liver-type phosphofructokinase), expressed in TFK1 cells (human) (UniProt P17858); test: co-IP; Flag-tagged PFKL in TFK1 cells, blots for zinc-dependent HDACs; lysis buffer 150 mM NaCl, 25 mM Tris-HCl, 0.5% NP-40; anti-FLAG-M2 magnetic beads
T2 sequence: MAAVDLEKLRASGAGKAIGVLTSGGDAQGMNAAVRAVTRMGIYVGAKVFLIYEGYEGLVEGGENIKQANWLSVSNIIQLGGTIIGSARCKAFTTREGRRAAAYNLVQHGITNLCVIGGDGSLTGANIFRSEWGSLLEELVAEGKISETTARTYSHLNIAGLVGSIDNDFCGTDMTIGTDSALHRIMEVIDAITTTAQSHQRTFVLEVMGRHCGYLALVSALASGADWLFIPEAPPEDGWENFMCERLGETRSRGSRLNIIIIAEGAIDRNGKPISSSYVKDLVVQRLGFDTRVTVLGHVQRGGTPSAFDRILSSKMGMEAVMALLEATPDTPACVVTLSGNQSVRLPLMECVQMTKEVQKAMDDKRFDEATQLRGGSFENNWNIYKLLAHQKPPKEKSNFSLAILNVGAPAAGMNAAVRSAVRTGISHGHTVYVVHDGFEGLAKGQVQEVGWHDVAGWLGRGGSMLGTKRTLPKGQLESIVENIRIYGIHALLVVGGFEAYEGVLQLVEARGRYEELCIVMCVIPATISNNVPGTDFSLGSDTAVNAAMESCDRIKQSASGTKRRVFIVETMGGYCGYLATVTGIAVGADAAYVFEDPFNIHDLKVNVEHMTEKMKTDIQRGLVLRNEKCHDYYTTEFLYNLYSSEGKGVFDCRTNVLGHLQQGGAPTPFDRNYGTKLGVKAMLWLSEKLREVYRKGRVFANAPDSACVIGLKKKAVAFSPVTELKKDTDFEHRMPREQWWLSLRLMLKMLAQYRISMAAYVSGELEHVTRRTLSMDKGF

[4] = target: T3, PFKL, endogenous in TFK1 cells (human (endogenous in TFK1)) (UniProt P17858); test: co-IP; endogenous PFKL and class I HDACs in TFK1 whole-cell lysates and nuclear lysates
T3 sequence: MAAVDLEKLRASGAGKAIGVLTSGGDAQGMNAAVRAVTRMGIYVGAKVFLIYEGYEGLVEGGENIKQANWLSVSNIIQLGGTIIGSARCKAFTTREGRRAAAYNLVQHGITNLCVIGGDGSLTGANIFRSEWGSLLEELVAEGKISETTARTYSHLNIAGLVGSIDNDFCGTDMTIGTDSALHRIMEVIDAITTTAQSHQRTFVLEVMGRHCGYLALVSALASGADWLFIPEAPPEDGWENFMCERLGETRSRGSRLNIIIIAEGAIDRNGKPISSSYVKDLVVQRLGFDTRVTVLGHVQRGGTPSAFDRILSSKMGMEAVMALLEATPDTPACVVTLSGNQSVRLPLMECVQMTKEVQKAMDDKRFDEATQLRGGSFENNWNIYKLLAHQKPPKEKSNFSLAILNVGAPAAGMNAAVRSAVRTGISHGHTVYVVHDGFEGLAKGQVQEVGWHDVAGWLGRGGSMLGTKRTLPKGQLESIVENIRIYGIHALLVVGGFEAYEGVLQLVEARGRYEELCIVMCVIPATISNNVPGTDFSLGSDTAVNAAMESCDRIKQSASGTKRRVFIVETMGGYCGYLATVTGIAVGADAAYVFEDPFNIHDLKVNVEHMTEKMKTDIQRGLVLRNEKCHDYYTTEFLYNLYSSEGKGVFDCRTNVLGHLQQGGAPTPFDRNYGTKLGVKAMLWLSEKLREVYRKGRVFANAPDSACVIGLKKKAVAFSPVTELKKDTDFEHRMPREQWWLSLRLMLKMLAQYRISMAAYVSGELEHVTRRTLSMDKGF

- binding [1]: binds
B1: PFKL (endogenous or tagged not stated; immunoprecipitates for mass spectrometry, co-IP of the PFK isoforms, purified PFKL added to HDAC1) (enzyme, UniProt P17858 1-780)
chain: MAAVDLEKLRASGAGKAIGVLTSGGDAQGMNAAVRAVTRMGIYVGAKVFLIYEGYEGLVEGGENIKQANWLSVSNIIQLGGTIIGSARCKAFTTREGRRAAAYNLVQHGITNLCVIGGDGSLTGANIFRSEWGSLLEELVAEGKISETTARTYSHLNIAGLVGSIDNDFCGTDMTIGTDSALHRIMEVIDAITTTAQSHQRTFVLEVMGRHCGYLALVSALASGADWLFIPEAPPEDGWENFMCERLGETRSRGSRLNIIIIAEGAIDRNGKPISSSYVKDLVVQRLGFDTRVTVLGHVQRGGTPSAFDRILSSKMGMEAVMALLEATPDTPACVVTLSGNQSVRLPLMECVQMTKEVQKAMDDKRFDEATQLRGGSFENNWNIYKLLAHQKPPKEKSNFSLAILNVGAPAAGMNAAVRSAVRTGISHGHTVYVVHDGFEGLAKGQVQEVGWHDVAGWLGRGGSMLGTKRTLPKGQLESIVENIRIYGIHALLVVGGFEAYEGVLQLVEARGRYEELCIVMCVIPATISNNVPGTDFSLGSDTAVNAAMESCDRIKQSASGTKRRVFIVETMGGYCGYLATVTGIAVGADAAYVFEDPFNIHDLKVNVEHMTEKMKTDIQRGLVLRNEKCHDYYTTEFLYNLYSSEGKGVFDCRTNVLGHLQQGGAPTPFDRNYGTKLGVKAMLWLSEKLREVYRKGRVFANAPDSACVIGLKKKAVAFSPVTELKKDTDFEHRMPREQWWLSLRLMLKMLAQYRISMAAYVSGELEHVTRRTLSMDKGF

- binding [2]: binds
B2: His-HDAC8, recombinant (enzyme, UniProt Q9BY41 1-377)
chain: MEEPEEPADSGQSLVPVYIYSPEYVSMCDSLAKIPKRASMVHSLIEAYALHKQMRIVKPKVASMEEMATFHTDAYLQHLQKVSQEGDDDHPDSIEYGLGYDCPATEGIFDYAAAIGGATITAAQCLIDGMCKVAINWSGGWHHAKKDEASGFCYLNDAVLGILRLRRKFERILYVDLDLHHGDGVEDAFSFTSKVMTVSLHKFSPGFFPGTGDVSDVGLGKGRYYSVNVPIQDGIQDEKYYQICESVLKEVYQAFNPKAVVLQLGADTIAGDPMCSFNMTPVGIGKCLKYILQWQLATLILGGGGYNLANTARCWTYLTGVILGKTLSSEIPDHEFFTAYGPDYVLEITPSCRPDRNEPHRIQQILNYIKGNLKHVV

- binding [3]: binds
- binding [4]: binds
B3: HDAC8, endogenous in TFK1 cells (enzyme, UniProt Q9BY41 1-377)
chain: MEEPEEPADSGQSLVPVYIYSPEYVSMCDSLAKIPKRASMVHSLIEAYALHKQMRIVKPKVASMEEMATFHTDAYLQHLQKVSQEGDDDHPDSIEYGLGYDCPATEGIFDYAAAIGGATITAAQCLIDGMCKVAINWSGGWHHAKKDEASGFCYLNDAVLGILRLRRKFERILYVDLDLHHGDGVEDAFSFTSKVMTVSLHKFSPGFFPGTGDVSDVGLGKGRYYSVNVPIQDGIQDEKYYQICESVLKEVYQAFNPKAVVLQLGADTIAGDPMCSFNMTPVGIGKCLKYILQWQLATLILGGGGYNLANTARCWTYLTGVILGKTLSSEIPDHEFFTAYGPDYVLEITPSCRPDRNEPHRIQQILNYIKGNLKHVV
